{"source": "the supplement of paper PMC8728848", "experiment_in_all_cases": "glycan array binding signal (z-score within array); higher = stronger binding", "conditions_in_all_cases": "glycan notation: IUPAC condensed, linker removed", "key": {"[1]": {"biological_target": "Fuc(a1-2)Gal(b1-4)GlcNAc(b1-3)Gal(b1-4)GlcNAc(b1-3)Gal(b1-4)GlcNAc", "how_it_was_run": "(§1)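 Glycan array binding is given as a within-array Z-score, which can be read as non-binding when negative. The arrays, 3228 of them, came from the Consortium for Functional Glycomics database and were retained only where the protein sequence was available. Z-scores were averaged across arrays of the same protein sequence at different concentrations or buffers and across linkers.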"}, "[2]": {"biological_target": "Fuc(a1-2)Gal(b1-4)GlcNAc(b1-3)GalNAc", "how_it_was_run": "as §1"}, "[3]": {"biological_target": "Fuc(a1-2)Gal(b1-4)GlcNAc(b1-3)[Fuc(a1-2)Gal(b1-4)GlcNAc(b1-6)]GalNAc", "how_it_was_run": "as §1"}, "[4]": {"biological_target": "Fuc(a1-2)Gal(b1-4)GlcNAc(b1-3)[Fuc(a1-3)[Gal(b1-4)]GlcNAc(b1-6)]Gal(b1-4)Glc", "how_it_was_run": "as §1"}, "[5]": {"biological_target": "Fuc(a1-2)Gal(b1-4)GlcNAc(b1-6)GalNAc", "how_it_was_run": "as §1"}, "[6]": {"biological_target": "Fuc(a1-2)Gal(b1-4)GlcNAc6S", "how_it_was_run": "as §1"}, "[7]": {"biological_target": "Fuc(a1-2)Gal(b1-4)[Fuc(a1-3)]GlcNAc", "how_it_was_run": "as §1"}, "[8]": {"biological_target": "Fuc(a1-2)Gal(b1-4)[Fuc(a1-3)]GlcNAc(b1-2)Man(a1-3)[Fuc(a1-2)Gal(b1-4)[Fuc(a1-3)]GlcNAc(b1-2)Man(a1-6)]Man(b1-4)GlcNAc(b1-4)[Fuc(a1-6)]GlcNAc", "how_it_was_run": "as §1"}, "[9]": {"biological_target": "Fuc(a1-2)Gal(b1-4)[Fuc(a1-3)]GlcNAc(b1-2)[Fuc(a1-2)Gal(b1-4)[Fuc(a1-3)]GlcNAc(b1-4)]Man(a1-3)[Fuc(a1-2)Gal(b1-4)[Fuc(a1-3)]GlcNAc(b1-2)Man(a1-6)]Man(b1-4)GlcNAc(b1-4)GlcNAc", "how_it_was_run": "as §1"}, "[10]": {"biological_target": "Fuc(a1-2)Gal(b1-4)[Fuc(a1-3)]GlcNAc(b1-3)Gal(b1-4)[Fuc(a1-3)]GlcNAc", "how_it_was_run": "as §1"}, "[11]": {"biological_target": "Fuc(a1-2)Gal(b1-4)[Fuc(a1-3)]GlcNAc(b1-3)Gal(b1-4)[Fuc(a1-3)]GlcNAc(b1-3)Gal(b1-4)[Fuc(a1-3)]GlcNAc", "how_it_was_run": "as §1"}, "[12]": {"biological_target": "Fuc(a1-2)Gal(b1-4)[Fuc(a1-3)]GlcNAc(b1-3)GalNAc", "how_it_was_run": "as §1"}, "[13]": {"biological_target": "Fuc(a1-2)Gal(b1-4)[Fuc(a1-3)]GlcNAc(b1-3)[Neu5Ac(a2-6)Gal(b1-4)GlcNAc(b1-6)]Gal(b1-4)Glc", "how_it_was_run": "as §1"}, "[14]": {"biological_target": "Fuc(a1-2)Gal3S(b1-4)GlcNAc", "how_it_was_run": "as §1"}, "[15]": {"biological_target": "Fuc(a1-2)Gal6S(b1-3)GlcNAc", "how_it_was_run": "as §1"}, "[16]": {"biological_target": "Fuc(a1-2)Gal6S(b1-3)GlcNAc6S", "how_it_was_run": "as §1"}, "Fuc(a1-2)Gal6S(b1-4)Glc": {"biological_target": "Fuc(a1-2)Gal6S(b1-4)Glc", "how_it_was_run": "as §1"}, "[17]": {"biological_target": "Fuc(a1-2)Gal6S(b1-4)Glc6S", "how_it_was_run": "as §1"}, "Fuc(a1-2)[Gal(a1-3)]Gal": {"biological_target": "Fuc(a1-2)[Gal(a1-3)]Gal", "how_it_was_run": "as §1"}, "[18]": {"biological_target": "Fuc(a1-2)[Gal(a1-3)]Gal(b1-3)GalNAc", "how_it_was_run": "as §1"}, "[19]": {"biological_target": "Fuc(a1-2)[Gal(a1-3)]Gal(b1-3)GalNAc(b1-3)Gal(a1-4)Gal(b1-4)Glc", "how_it_was_run": "as §1"}, "[20]": {"biological_target": "Fuc(a1-2)[Gal(a1-3)]Gal(b1-3)GlcNAc", "how_it_was_run": "as §1"}, "[21]": {"biological_target": "Fuc(a1-2)[Gal(a1-3)]Gal(b1-3)GlcNAc(b1-2)Man(a1-3)[Fuc(a1-2)[Gal(a1-3)]Gal(b1-3)GlcNAc(b1-2)Man(a1-6)]Man(b1-4)GlcNAc(b1-4)GlcNAc", "how_it_was_run": "as §1"}, "[22]": {"biological_target": "Fuc(a1-2)[Gal(a1-3)]Gal(b1-3)GlcNAc(b1-2)Man(a1-3)[Fuc(a1-2)[Gal(a1-3)]Gal(b1-3)GlcNAc(b1-2)Man(a1-6)]Man(b1-4)GlcNAc(b1-4)[Fuc(a1-6)]GlcNAc", "how_it_was_run": "as §1"}, "[23]": {"biological_target": "Fuc(a1-2)[Gal(a1-3)]Gal(b1-3)GlcNAc(b1-3)GalNAc", "how_it_was_run": "as §1"}, "[24]": {"biological_target": "Fuc(a1-2)[Gal(a1-3)]Gal(b1-3)GlcNAc(b1-6)GalNAc", "how_it_was_run": "as §1"}, "[25]": {"biological_target": "Fuc(a1-2)[Gal(a1-3)]Gal(b1-4)Glc", "how_it_was_run": "as §1"}, "[26]": {"biological_target": "Fuc(a1-2)[Gal(a1-3)]Gal(b1-4)GlcNAc", "how_it_was_run": "as §1"}, "[27]": {"biological_target": "Fuc(a1-2)[Gal(a1-3)]Gal(b1-4)GlcNAc(b1-2)Man", "how_it_was_run": "as §1"}, "[28]": {"biological_target": "Fuc(a1-2)[Gal(a1-3)]Gal(b1-4)GlcNAc(b1-2)Man(a1-3)[Fuc(a1-2)[Gal(a1-3)]Gal(b1-4)GlcNAc(b1-2)Man(a1-6)]Man(b1-4)GlcNAc(b1-4)GlcNAc", "how_it_was_run": "as §1"}}, "note": "The list shows a part of the results."}
{"binder": "his-Lectin-24A (Drosophila melanogaster) (protein) MFRLSVLVLNLLLVSHEFSAGTAKIEIQPLPALCNGYCFPTLKPVMEYVAIHQDKWNTCTEILANEARKDQIQLNIQLDALKADVSNIKASQLSKDEKLDRMEREQFAMHESLETINRYLTVKLDRTKLQLEAIKNTMDYMKAQMDGYFSAINGVQCLQPGFEKIGDRYFYIEEDVELNWLDAQAKCRRMGGHLASIKTKQEFDAIVEKLDDSKSYFLGVNENTKTGDFVSAASGKSCLYHEWGPGEPHHNNDQERCVSILRKLMHVGNCTYEKRFICQYGI", "values": [{"measurement": "glycan array binding signal (z-score)", "setting": "[1]", "value": -0.296}, {"measurement": "glycan array binding signal (z-score)", "setting": "[2]", "value": -0.522}, {"measurement": "glycan array binding signal (z-score)", "setting": "[3]", "value": -0.269}, {"measurement": "glycan array binding signal (z-score)", "setting": "[4]", "value": 2.69}, {"measurement": "glycan array binding signal (z-score)", "setting": "[5]", "value": -0.302}, {"measurement": "glycan array binding signal (z-score)", "setting": "[6]", "value": -0.612}, {"measurement": "glycan array binding signal (z-score)", "setting": "[7]", "value": 0.82}, {"measurement": "glycan array binding signal (z-score)", "setting": "[8]", "value": -0.533}, {"measurement": "glycan array binding signal (z-score)", "setting": "[9]", "value": -0.328}, {"measurement": "glycan array binding signal (z-score)", "setting": "[10]", "value": 1.19}, {"measurement": "glycan array binding signal (z-score)", "setting": "[11]", "value": -0.768}, {"measurement": "glycan array binding signal (z-score)", "setting": "[12]", "value": 0.482}, {"measurement": "glycan array binding signal (z-score)", "setting": "[13]", "value": 0.151}, {"measurement": "glycan array binding signal (z-score)", "setting": "[14]", "value": -0.932}, {"measurement": "glycan array binding signal (z-score)", "setting": "[15]", "value": 1.03}, {"measurement": "glycan array binding signal (z-score)", "setting": "[16]", "value": -0.015}, {"measurement": "glycan array binding signal (z-score)", "setting": "Fuc(a1-2)Gal6S(b1-4)Glc", "value": -0.34}, {"measurement": "glycan array binding signal (z-score)", "setting": "[17]", "value": -0.878}, {"measurement": "glycan array binding signal (z-score)", "setting": "Fuc(a1-2)[Gal(a1-3)]Gal", "value": -1.27}, {"measurement": "glycan array binding signal (z-score)", "setting": "[18]", "value": 0}, {"measurement": "glycan array binding signal (z-score)", "setting": "[19]", "value": -0.993}, {"measurement": "glycan array binding signal (z-score)", "setting": "[20]", "value": -0.679}, {"measurement": "glycan array binding signal (z-score)", "setting": "[21]", "value": -0.788}, {"measurement": "glycan array binding signal (z-score)", "setting": "[22]", "value": 0.379}, {"measurement": "glycan array binding signal (z-score)", "setting": "[23]", "value": -0.701}, {"measurement": "glycan array binding signal (z-score)", "setting": "[24]", "value": -0.692}, {"measurement": "glycan array binding signal (z-score)", "setting": "[25]", "value": -0.583}, {"measurement": "glycan array binding signal (z-score)", "setting": "[26]", "value": -0.452}, {"measurement": "glycan array binding signal (z-score)", "setting": "[27]", "value": 0.08}, {"measurement": "glycan array binding signal (z-score)", "setting": "[28]", "value": 2.02}]}
